{"sequences": {"note": "By UniProt entry, the sequences of proteins in these tests, tags left out. Where a name states a change or a piece, a line headed by the entry shows the natural chain unless it says otherwise.", "UniProt P18054": "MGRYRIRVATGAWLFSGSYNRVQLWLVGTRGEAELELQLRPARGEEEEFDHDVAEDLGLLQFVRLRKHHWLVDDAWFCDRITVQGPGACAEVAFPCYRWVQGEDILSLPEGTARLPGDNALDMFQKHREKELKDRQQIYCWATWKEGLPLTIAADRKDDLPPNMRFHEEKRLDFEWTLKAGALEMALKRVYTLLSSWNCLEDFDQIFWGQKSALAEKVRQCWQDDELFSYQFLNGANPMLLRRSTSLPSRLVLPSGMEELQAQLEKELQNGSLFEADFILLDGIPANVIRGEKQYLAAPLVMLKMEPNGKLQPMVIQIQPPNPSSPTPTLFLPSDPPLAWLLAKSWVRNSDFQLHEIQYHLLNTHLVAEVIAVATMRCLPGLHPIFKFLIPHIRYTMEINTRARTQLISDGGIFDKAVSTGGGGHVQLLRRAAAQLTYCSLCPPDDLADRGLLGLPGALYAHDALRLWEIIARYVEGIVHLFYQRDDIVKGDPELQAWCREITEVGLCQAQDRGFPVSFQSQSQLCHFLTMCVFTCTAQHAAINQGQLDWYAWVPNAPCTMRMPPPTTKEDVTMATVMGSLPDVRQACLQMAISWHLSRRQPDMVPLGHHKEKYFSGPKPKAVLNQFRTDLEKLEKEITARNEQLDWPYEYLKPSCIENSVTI"}, "source": "PubChem BioAssay AID1671190", "about": "(National Center for Advancing Translational Sciences (NCATS), 2021)", "note": "Where “and” joins values, the source holds several entries; their conditions need not be identical. Equal values may be shown once. The campaign covered roughly 580,000 compounds. About 6,100 (1.1%) were called active. The inconclusive results got no clear call from the source; some entries with a clear call stand among them for comparison. Calls come from the whole dose curve; as a rule, active = well fitted inhibition curve with a large enough effect; inconclusive = small, poorly fitted or top-dose-only effect, or another doubt; inactive = no such curve, though single readings can be large or run the other way. Potencies beside an inconclusive call are fits to weak or partial responses and may not hold up. Potency is the fitted concentration of half-maximal effect."}
{"target": "Polyunsaturated fatty acid lipoxygenase ALOX12 (Homo sapiens) (UniProt P18054)", "test": "Primary qHTS assay for inhibitors of human arachidonate 12S-lipoxygenase (ALOX12): Round 2", "settings": "purified 12hLO, xylenol orange hydroperoxide absorbance; series mostly up to 108 µM", "outline": "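Hydroperoxide product was detected by ferrous iron/xylenol orange as the 573 to 405 nm absorbance ratio. Arachidonic acid at 40 uM (final) was turned over for 30 min at room temperature by 150 nM human 12hLO, pH 7.0 Hepes buffer, after 15 min compound preincubation.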"}
{"smiles": "NC(=S)N/N=C/c1cccc(Br)c1", "Potency": "inconclusive: 70.8 µM [inhibitor, partial curve, poor fit]"}
{"smiles": "CN1C[C@@H](NC(=O)c2cncnc2)C[C@H]1c1nc(-c2cnccn2)no1", "Potency": "inconclusive: 10 µM [inhibitor, full curve, poor fit]"}
{"smiles": "O=C(CNCCc1ccc(Cl)cc1)Nc1ccc(C(=O)N2CCCCC2)cc1", "Potency": "inconclusive: 0.501 µM [inhibitor, full curve, poor fit]"}
{"smiles": "C[C@@H]1CN(C2(C(=O)NCc3ccncc3)Cc3ccccc3C2)C[C@H](C)O1", "Potency": "inactive"}
{"smiles": "Cc1nc(NCCN2CCOC2=O)c2sccc2n1", "Potency": "inconclusive: 20 µM [inhibitor, full curve]"}
{"smiles": "O=C(COc1coc(CN2CCSCC2)cc1=O)NCc1ccccc1Cl", "Potency": "inconclusive: 28.2 µM [inhibitor, single point]"}
{"smiles": "Cc1ccc(S(=O)(=O)N2CCN(C(=O)N(C)C)C2C(C)C)cc1", "note": "(stereo not drawn)", "Potency": "inconclusive: 126 µM [inhibitor, single point]"}
{"smiles": "CCOc1cc(C2C(C#N)=C(N)Oc3cc(O)ccc32)ccc1OCc1ccccc1", "note": "(stereo not drawn)", "Potency": "inconclusive: 14.1 µM [inhibitor, partial curve, poor fit]"}
{"smiles": "CC(C)c1ccc2nc3sc(C(=O)N4CCc5ccccc5C4)c(N)c3cc2c1", "Potency": "inconclusive: 31.6 µM [inhibitor, partial curve, poor fit]"}
{"smiles": "COc1ccc(-c2cc(C)nc(SCc3cccc(C(=O)O)c3)n2)cc1", "Potency": "inconclusive: 44.7 µM [inhibitor, partial curve, poor fit]"}
{"smiles": "Cc1cc(C)cc(NS(=O)(=O)c2cc(-c3cnc(C)o3)ccc2C)c1", "Potency": "inactive"}
{"smiles": "COc1ccccc1Cc1c(-c2ccccc2)nc2c(C)cc(Br)cn12", "Potency": "inconclusive: 20 µM [inhibitor, partial curve, poor fit]"}
{"smiles": "COCCc1noc([C@@H]2CC(F)(F)CN2C(=O)c2ccc(C)cn2)n1", "Potency": "inactive"}
{"smiles": "Cc1ccc(C(=O)CC2(O)C(=O)N(CN3CCOCC3)c3ccccc32)cc1", "note": "(stereo not drawn)", "Potency": "inactive"}
{"smiles": "Cc1ccc(CN2CC(C(=O)N(C)CC(=O)Nc3cccc(F)c3)CC2=O)cc1", "note": "(stereo not drawn)", "Potency": "inconclusive: 100 µM [inhibitor, partial curve, poor fit]"}
{"smiles": "O=C(Nc1ccc(CN2CCOCC2)cc1)c1ccc(-c2ccc(Cl)cc2Cl)o1", "Potency": "inconclusive: 63.1 µM [inhibitor, partial curve, poor fit]"}
{"smiles": "O=C(O)C/C(=C/c1ccc(OC(F)F)cc1)c1nc2ccccc2s1", "Potency": "inconclusive: 56.2 µM [inhibitor, partial curve, poor fit]"}
{"smiles": "Cc1ccc(NC(=O)C2CCCCC(=O)N2)cc1F", "note": "(stereo not drawn)", "Potency": "inconclusive: 31.6 µM [inhibitor, full curve]"}
{"smiles": "CC(C)(C)c1csc(NC(=O)c2cccnc2Cl)n1", "Potency": "inconclusive: 141 µM [inhibitor, single point]"}
{"smiles": "O=C1C=CC2=C3c4cc(O)c(O)cc4C[C@@]3(O)COC2=C1", "Potency": "inconclusive: 44.7 µM [inhibitor, partial curve, poor fit]"}
{"smiles": "Cc1c(C(=O)N2CCC(C)CC2)c(S(=O)(=O)N2CCN(c3ccc(Cl)cc3)CC2)c(C)n1C", "Potency": "inconclusive: 56.2 µM [inhibitor, partial curve, poor fit]"}
{"smiles": "Cc1ccc(Cl)cc1N1CCN(C(=O)C2CCN(Cc3nc(-c4ccc(Cl)cc4)oc3C)CC2)CC1", "Potency": "inconclusive: 7.08 µM [inhibitor, partial curve, poor fit]"}
{"smiles": "N#CCCn1cc(C(=O)CN2C(=O)NC(Cc3c[nH]c4ccccc34)C2=O)c2ccccc21", "note": "(stereo not drawn)", "Potency": "inactive"}
{"smiles": "CC1(C#CC[N+]2(C)CCCCC2)CCC2C(O1)c1ccccc1OC2(C)C", "note": "(stereo not drawn)", "Potency": "inconclusive: 44.7 µM [inhibitor, partial curve, poor fit]"}
{"smiles": "O=C(N[C@H]1[C@H](O)[C@H](O)C[C@@H]1c1cccnc1)c1ccccn1", "Potency": "inactive"}
{"smiles": "O=C(c1ccc(Cl)cc1)N1CCC2(CC1)C(=O)NCN2Cc1ccc(Cl)cc1", "Potency": "inconclusive: 79.4 µM [inhibitor, partial curve]"}
{"smiles": "COc1cccc(N2CC(C(=O)N3CCC(C(=O)N4CCOCC4)C3)NC2=O)c1", "note": "(stereo not drawn)", "Potency": "inconclusive: 70.8 µM [inhibitor, partial curve]"}
{"smiles": "CCOC(=O)c1[nH]c(C)c(C(=O)OCC(=O)NC(C)c2ccc(F)cc2)c1C", "note": "(stereo not drawn)", "Potency": "inconclusive: 112 µM [inhibitor, single point]"}
{"smiles": "CC1CCCN(CCCNC(=O)CN2C(=O)CSc3ccc(S(=O)(=O)N4CCOCC4)cc32)C1", "note": "(stereo not drawn)", "Potency": "inactive"}
{"smiles": "COc1ccc(N2CCN(C(=O)c3oc4ccccc4c3NC(=O)c3ccccc3OC)CC2)cc1", "Potency": "inactive"}
{"smiles": "Cc1ccccc1-n1c(C)c(C)c2c1ncn1nc(-c3cccnc3)nc21", "Potency": "inactive"}
{"smiles": "O=C(NCc1cccs1)c1ccc2c(c1)n(Cc1cccc(F)c1)c(=O)c1ccnn12", "Potency": "inconclusive: 100 µM [inhibitor, single point]"}
{"smiles": "CC1C(=O)N2CCCc3cc(NS(=O)(=O)c4ccc(F)cc4)cc1c32", "note": "(stereo not drawn)", "Potency": "inconclusive: 50.1 µM [inhibitor, partial curve, poor fit]"}
{"smiles": "Cn1c(-c2ccc(F)cc2)cnc1NCc1ccc(F)cc1", "Potency": "inconclusive: 0.282 µM [inhibitor, full curve, poor fit]"}
{"smiles": "CCOC(=O)COc1ccc(/C=C2/C(=O)NN(c3ccc(F)cc3)C2=O)cc1OC", "Potency": "inactive"}
{"smiles": "C#CCN(C(=O)Cn1c(=O)c2c(ncn2C)n(C)c1=O)C1CCCCC1", "Potency": "inactive"}
{"smiles": "COc1ccc(N2CCN(C(=O)[C@H](Cc3c[nH]c4ccccc34)NC(C)=O)CC2)cc1", "Potency": "inconclusive: 50.1 µM [inhibitor, partial curve, poor fit]"}
{"smiles": "O=C(CSCc1ccc(Cl)cc1Cl)Nc1ccccc1C(=O)Nc1ccc(C(=O)O)cc1", "Potency": "inconclusive: 63.1 µM [inhibitor, partial curve, poor fit]"}
{"smiles": "COC(=O)N1C(=O)[C@@](c2ccccc2)(C2CCCC2)N1C(=O)OC", "Potency": "inactive"}
{"smiles": "Cc1ccc(Cl)cc1N1CCN(S(=O)(=O)c2cc3[nH]c(=O)c(=O)[nH]c3cc2C)CC1", "Potency": "inconclusive: 89.1 µM [inhibitor, partial curve, poor fit]"}
{"smiles": "Cc1ccc(NC(=O)CCCc2ccccc2)c([N+](=O)[O-])c1", "Potency": "inactive"}
{"smiles": "Cc1nccc(-c2sc(-c3cccs3)nc2C)n1", "Potency": "inconclusive: 141 µM [inhibitor, partial curve, poor fit]"}
{"smiles": "Nc1cc(S(=O)(=O)O)ccc1S(=O)(=O)O", "Potency": "inconclusive: 12.6 µM [inhibitor, full curve, poor fit]"}
{"smiles": "Cc1ccc(C)c(NC(=S)N/N=C2/CCCCc3ccccc32)c1", "Potency": "active: 50.1 µM"}
{"smiles": "COc1ccc(NS(=O)(=O)c2cc(C(=O)Nc3ccccc3C(=O)O)ccc2C)cc1", "Potency": "inconclusive: 35.5 µM [inhibitor, single point]"}
{"smiles": "Cc1ccc2cc(C(=O)N3CCN(S(=O)(=O)c4cccs4)CC3)[nH]c2c1", "Potency": "inconclusive: 39.8 µM [inhibitor, partial curve, poor fit]"}
{"smiles": "CCCc1cc2c(-c3ccccc3)cc(=O)oc2cc1OCc1ccc(C(=O)O)o1", "Potency": "inconclusive: 79.4 µM [inhibitor, single point]"}
{"smiles": "CC12CCC(C/C1=N/NC(=O)Nc1ccccc1)C2(C)C", "note": "(stereo not drawn)", "Potency": "inactive"}
{"smiles": "O=C(CCN1CCN(c2ccccn2)CC1)Nc1ccc(F)cc1", "Potency": "inactive"}
{"smiles": "CCOCCCNC(=O)C1CCNCC1", "Potency": "inconclusive: 50.1 µM [inhibitor, single point]"}
{"smiles": "O=C(CSc1nnc(-c2ccccc2)n1-c1ccc(Cl)cc1)NNC(=S)Nc1ccccc1", "Potency": "inconclusive: 44.7 µM [inhibitor, partial curve, poor fit]"}
{"smiles": "COc1ccc(Cl)cc1NC(=O)c1sc2nc(C)nc(N3CCOCC3)c2c1C", "Potency": "inactive"}
{"smiles": "Cc1ccc(-c2cc(C(=O)NCC(c3ccccc3)N(C)C)c3ccccc3n2)o1", "note": "(stereo not drawn)", "Potency": "inconclusive: 7.94 µM [inhibitor, full curve, poor fit] and inconclusive: 44.7 µM [inhibitor, partial curve, poor fit]"}
{"smiles": "COc1ccc(CCNC(=O)COc2ccc(S(=O)(=O)NC3CCCCC3)cc2Cl)cc1", "Potency": "inactive"}
{"smiles": "O=C1C=C(/C=C/c2ccccc2)C[C@@H](c2ccc3c(c2)OCO3)C1", "Potency": "inconclusive: 44.7 µM [inhibitor, partial curve, poor fit]"}
{"smiles": "C/C(=N\\NC(=O)CC(C)C)c1c(C(F)(F)F)[nH]n(-c2nc3ccccc3s2)c1=O", "Potency": "inconclusive: 31.6 µM [inhibitor, partial curve]"}
{"smiles": "COc1ccc2c(c1OC)C(=O)OC2[C@H]1c2c(cc3c(c2OC)OCO3)CCN1C", "note": "(stereo partly drawn)", "Potency": "inconclusive: 28.2 µM [inhibitor, single point]"}
{"smiles": "CCCSc1ccc([C@@H]2[C@H]3C(=O)N(C)C(=O)[C@H]3[C@]3(C(=O)OC)CCCN23)cc1OC", "Potency": "inconclusive: 11.2 µM [inhibitor, full curve]"}
{"smiles": "COc1cccc(-c2nc(-c3nc4ccccc4s3)cs2)c1OC", "Potency": "active: 5.01 µM"}
{"smiles": "CN(C)S(=O)(=O)c1cccc(C(=O)Nc2ccc(N3CCCCC3)c3ccncc23)c1", "Potency": "inconclusive: 79.4 µM [inhibitor, single point]"}
{"smiles": "COc1cc(CNC(=O)Nc2ccc(C)c(F)c2)ccn1", "Potency": "inconclusive: 100 µM [inhibitor, partial curve, poor fit]"}
{"smiles": "COc1coc(CN2CCCC(CCc3ccccc3F)C2)cc1=O", "note": "(stereo not drawn)", "Potency": "inconclusive: 8.91 µM [inhibitor, full curve]"}
{"smiles": "COc1cc(CN2CCC(C)CC2)ccc1OCc1ccccc1", "Potency": "inconclusive: 0.447 µM [inhibitor, full curve, poor fit]"}
